Drawing on publication doi:10.1101/2021.07.30.454416, this text covers binding for two molecules.

In this assay the target is FLAG-tagged AtpΘ (AtpΘ-3xFLAG) (Synechocystis sp. PCC 6803). The assay is described as follows: affinity purification with mass spectrometry.

Results are given in words; binding and its absence hold for the method and conditions named. In cells and extracts the contact can be indirect. Here binding means that the protein was enriched with, or labelled near, the bait; the list need not be complete.

B1: CmpC (protein, UniProt Q55462 1-667)
chain: MSLFVAVDNIDKVFSLTDGGEYIALKGINLEIKKGEFVSLIGHSGCGKSTLLNMIAGLDLPSEGIVTLEGQRIKQPGPDKMVIFQNYSLLPWLTVKQNIALAVDEVMKGASAAERKAIVEEHINLVGLGHAVDKRPGELSGGMKQRVAIARALAIRPKLLLLDEPFGALDALTRGNLQEQLMRICEQYQVTAVMVTHDVDEAVLLSDRIVMLTNGPGSNIGGILEVDIPRPRKRMEVVEHPSYYSLRSEIIYFLNQQKRIKKLRAKKTTAIARHGLEKVNLELGYVPLVACAPLVVAQEKGFFAKHGLDEVSLVRETSWRGIVDGIAGGYLDGAQMPAGMPTWLTAGGYREQSIPVVSALTMTRNGNAITLSKKLYDQGIYTAEDFRQLLLASDGDRHTLGMVHPSSMHNLLLRYWLAAHNINPDRDVHLKTIPPAQMVADLKAGTIDGYCVSEPWNLRASMEGAGFSIATDLEIWQNHPGKVLGVREDWAIAHPNTHVALVKALLEACAYCADPNHEMEIRELLATRQYLSTNIDYIHLGDPEGRTCRLGNPVEYSHHLFFGDQFNRPSRTEHLWMMTQMARWGDIPFPRNWVEILERVCRVGVFSTAARELGYDVNYQRQPIALFDGKVFNADDPIAYLNQTVIHRNFTIAEVHLDNPTPAPVFA
On to B1, for which the binding entry was “binds”.

B2: ATP synthase subunit b' (AtpF2) (protein, UniProt P27183 1-143)
chain: MFDFDATLPLMALQFVVLAFLLNAIFYKPMNKVLDERADYIRTNEEDARERLAKAKAITQEYEQQITDARRQSQAVIADAQAEARRLAAEKIAEAQRESQRQKETAAQEIEAQRQSALSSLEQEVAALSNQILHKLLGPELIK
With B2, the binding entry is reported as “binds”.
